According to PubChem BioAssay AID270 (DTP/NCI, 2004):
The list is a part of this screen's results and no random one: it covers a few groups of compounds. Other doses and runs of a compound may be missing. T/C: endpoint of the treated group in % of that of the vehicle group. Schedules are NCI's codes, read here as Q, the interval in days (D) or hours (H), X, the number of doses. Some T/C values carry the count of animals alive at the toxicity check; where neither a count nor a note follows, no animal had died by that day. Some doses have a count of surviving animals in place of a T/C: the source holds a T/C of zero for them, seemingly a mark for toxic or unscored doses. Some doses without a T/C left all or most animals alive at the check, yet need not have been tolerated: survival well below the control is almost never listed, so the zero probably covers shortened survival too. Survivors were counted at the toxicity check, usually on the fifth day, unless a day is given; later deaths do not show. Survivors were counted at the toxicity check; its day is shown where the source gives one, and later deaths do not show. Where survival is the endpoint, the PubChem record calls one and a half times the control and up active, and a quarter to a half above the control has no call in these data; cut-offs in other NCI protocols can differ.

Test system: BDF1 mice, s.c. Lewis lung carcinoma, T/C %
Assay: NCI In Vivo Anticancer Drug Screen. Data for tumor model Lewis Lung Carcinoma (subcutaneous) in B6D2F1 (BDF1) mice
Description: The antitumor activity of compounds was measured in mice bearing transplantable tumors. Survival or tumor size were measured and the results are expressed as the measurement made in the treated group (T) divided by the measurement made in the vehicle treated control group (C). The tumor model used in this assay is Lewis Lung Carcinoma (subcutaneous) in B6D2F1 (BDF1) mice

Q: Which results are given for `N#C/C(=C\c1ccc(N(CCBr)CCBr)cc1)C(N)=O`?
A: T/C (T/C endpoint: median survival time, dose: 0.5 mg/kg/injection, schedule: Q01DX009 (ip), vehicle: saline with Tween-80, higher T/C = longer survival): 90 % of control; T/C (T/C endpoint: median survival time, dose: 1.0 mg/kg/injection, schedule: Q01DX009 (ip), vehicle: saline with Tween-80, higher T/C = longer survival): 95 % of control; survivor count (T/C endpoint: median survival time, dose: 2.0 mg/kg/injection, schedule: Q01DX009 (ip), vehicle: saline with Tween-80, higher T/C = longer survival): 10 of 10; T/C (T/C endpoint: median survival time, dose: 4.0 mg/kg/injection, schedule: Q01DX009 (ip), vehicle: saline with Tween-80, higher T/C = longer survival): 87 % of control; survivor count (T/C endpoint: median survival time, dose: 8.0 mg/kg/injection, schedule: Q01DX009 (ip), vehicle: saline with Tween-80, higher T/C = longer survival): 10 of 10; survivor count (T/C endpoint: median survival time, dose: 12.0 mg/kg/injection, schedule: Q01DX009 (ip), vehicle: saline with Tween-80, higher T/C = longer survival): 10 of 10

Q: What does the source list for `CC[C@H](C)[C@@H]1NC(=O)/C(=C(\C)O)C1=O`?
A: T/C (T/C endpoint: mean tumor weight, dose: 31.3 mg/kg/injection, schedule: Q01DX011 (ip), vehicle: saline, evaluated on day 12, higher T/C = larger tumour): 78 % of control; T/C (T/C endpoint: mean tumor weight, dose: 62.5 mg/kg/injection, schedule: Q01DX011 (ip), vehicle: saline, evaluated on day 12, higher T/C = larger tumour): 87 % of control [5 of 7 alive]; survivor count (T/C endpoint: mean tumor weight, dose: 125.0 mg/kg/injection, schedule: Q01DX011 (ip), vehicle: saline, higher T/C = larger tumour): 0 of 7; survivor count (T/C endpoint: mean tumor weight, dose: 250.0 mg/kg/injection, schedule: Q01DX011 (ip), vehicle: saline, higher T/C = larger tumour): 0 of 7

Q: How did the T/C (T/C endpoint: mean tumor weight, dose: 12.5 mg/kg/injection, schedule: Q01DX011 (ip), vehicle: saline, evaluated on day 12, higher T/C = larger tumour) turn out when `O=C(NN(CCCl)CCCl)c1ccccc1` was run?
A: 69 % of control

Q: And the T/C (T/C endpoint: mean tumor weight, dose: 25.0 mg/kg/injection, schedule: Q01DX011 (ip), vehicle: saline, evaluated on day 12, higher T/C = larger tumour)?
A: 64 % of control

Q: What about the survivor count (T/C endpoint: mean tumor weight, dose: 50.0 mg/kg/injection, schedule: Q01DX011 (ip), vehicle: saline, higher T/C = larger tumour) of the same compound?
A: 3 of 7

Q: And the survivor count (T/C endpoint: mean tumor weight, dose: 100.0 mg/kg/injection, schedule: Q01DX011 (ip), vehicle: saline, higher T/C = larger tumour)?
A: 0 of 7

Q: With `COc1ccc(O)c2c(=O)c3c(OC)cc4c(c3oc12)[C@@H]1C=CO[C@@H]1O4` as the compound, how does the T/C (T/C endpoint: median survival time, dose: 6.25 mg/kg/injection, schedule: Q01DX009 (ip), vehicle: saline with Tween-80, higher T/C = longer survival) read?
A: 122 % of control

Q: And the T/C (T/C endpoint: median survival time, dose: 12.5 mg/kg/injection, schedule: Q01DX009 (ip), vehicle: saline with Tween-80, higher T/C = longer survival)?
A: 119 % of control

Q: And the T/C (T/C endpoint: median survival time, dose: 25.0 mg/kg/injection, schedule: Q01DX009 (ip), vehicle: saline with Tween-80, higher T/C = longer survival)?
A: 132 % of control

Q: And the T/C (T/C endpoint: median survival time, dose: 50.0 mg/kg/injection, schedule: Q01DX009 (ip), vehicle: saline with Tween-80, higher T/C = longer survival)?
A: 87 % of control

Q: What about the survivor count (T/C endpoint: median survival time, dose: 100.0 mg/kg/injection, schedule: Q01DX009 (ip), vehicle: saline with Tween-80, higher T/C = longer survival) of the same compound?
A: 10 of 10

Q: With `O[C@H](CNCCCl)[C@H](O)CNCCCl` as the compound, how does the T/C (T/C endpoint: mean tumor weight, dose: 1.1 mg/kg/injection, schedule: Q01DX011 (ip), vehicle: other, evaluated on day 12, higher T/C = larger tumour) read?
A: 87 % of control

Q: What about the T/C (T/C endpoint: mean tumor weight, dose: 2.2 mg/kg/injection, schedule: Q01DX011 (ip), vehicle: other, evaluated on day 12, higher T/C = larger tumour) of the same compound?
A: 93 % of control

Q: And the T/C (T/C endpoint: mean tumor weight, dose: 4.5 mg/kg/injection, schedule: Q01DX011 (ip), vehicle: other, evaluated on day 12, higher T/C = larger tumour)?
A: 76 % of control

Q: And the T/C (T/C endpoint: mean tumor weight, dose: 4.5 mg/kg/injection, schedule: Q01DX011 (ip), vehicle: saline, evaluated on day 12, higher T/C = larger tumour)?
A: 42 % of control

Q: And the T/C (T/C endpoint: mean tumor weight, dose: 9.0 mg/kg/injection, schedule: Q01DX011 (ip), vehicle: saline, evaluated on day 12, higher T/C = larger tumour)?
A: 22 % of control [4 of 6 alive]

Q: And the survivor count (T/C endpoint: mean tumor weight, dose: 18.0 mg/kg/injection, schedule: Q01DX011 (ip), vehicle: saline, higher T/C = larger tumour)?
A: 0 of 6

Q: What about the survivor count (T/C endpoint: mean tumor weight, dose: 36.0 mg/kg/injection, schedule: Q01DX011 (ip), vehicle: saline, higher T/C = larger tumour) of the same compound?
A: 0 of 6

Q: Which results are given for `CN(C)P(=O)(Nc1ccccn1)N(C)C`?
A: T/C (T/C endpoint: median survival time, dose: 5.0 mg/kg/injection, schedule: Q01DX009 (ip), vehicle: saline, higher T/C = longer survival): 102 % of control; T/C (T/C endpoint: median survival time, dose: 10.0 mg/kg/injection, schedule: Q01DX009 (ip), vehicle: saline, higher T/C = longer survival): 91 % of control; survivor count (T/C endpoint: median survival time, dose: 20.0 mg/kg/injection, schedule: Q01DX009 (ip), vehicle: saline, higher T/C = longer survival): 10 of 10

Q: Which results are given for `NC(=O)c1cn[nH]c1/N=N/N(CCCl)CCCl`?
A: T/C (T/C endpoint: median tumor weight (est.), dose: 67.7 mg/kg/injection, schedule: Q01DX009 (ip), vehicle: saline with Tween-80, evaluated on day 14, higher T/C = larger tumour): 122 % of control; T/C (T/C endpoint: median tumor weight (est.), dose: 135.5 mg/kg/injection, schedule: Q01DX009 (ip), vehicle: saline with Tween-80, evaluated on day 14, higher T/C = larger tumour): 77 % of control; T/C (T/C endpoint: median tumor weight (est.), dose: 271.0 mg/kg/injection, schedule: Q01DX009 (ip), vehicle: saline with Tween-80, evaluated on day 14, higher T/C = larger tumour): 82 % of control
